From PubChem BioAssay (Tox21)
Several values for one entry are separate records, joined by “and”; a condition that tells them apart may be missing. Equal values may be shown once. Listed are the inconclusive results; actives and inactives stand elsewhere. Unless noted, calls come from the whole dose curve.

Protein sequences, listed by entry. Tags and fused reporters are not part of them.
UniProt P07550, whole entry: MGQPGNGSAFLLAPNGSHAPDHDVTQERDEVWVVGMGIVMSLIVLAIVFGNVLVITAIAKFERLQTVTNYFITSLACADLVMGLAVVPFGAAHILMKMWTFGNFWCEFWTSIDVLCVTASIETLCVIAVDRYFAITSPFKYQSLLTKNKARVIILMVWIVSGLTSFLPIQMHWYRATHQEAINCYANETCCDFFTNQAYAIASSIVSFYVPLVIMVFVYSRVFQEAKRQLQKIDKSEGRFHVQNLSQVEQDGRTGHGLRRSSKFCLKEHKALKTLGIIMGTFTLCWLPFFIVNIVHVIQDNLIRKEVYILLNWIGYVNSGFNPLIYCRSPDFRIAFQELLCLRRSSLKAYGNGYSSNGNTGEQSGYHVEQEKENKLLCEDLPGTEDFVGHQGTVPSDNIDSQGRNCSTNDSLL
UniProt P11229, whole entry: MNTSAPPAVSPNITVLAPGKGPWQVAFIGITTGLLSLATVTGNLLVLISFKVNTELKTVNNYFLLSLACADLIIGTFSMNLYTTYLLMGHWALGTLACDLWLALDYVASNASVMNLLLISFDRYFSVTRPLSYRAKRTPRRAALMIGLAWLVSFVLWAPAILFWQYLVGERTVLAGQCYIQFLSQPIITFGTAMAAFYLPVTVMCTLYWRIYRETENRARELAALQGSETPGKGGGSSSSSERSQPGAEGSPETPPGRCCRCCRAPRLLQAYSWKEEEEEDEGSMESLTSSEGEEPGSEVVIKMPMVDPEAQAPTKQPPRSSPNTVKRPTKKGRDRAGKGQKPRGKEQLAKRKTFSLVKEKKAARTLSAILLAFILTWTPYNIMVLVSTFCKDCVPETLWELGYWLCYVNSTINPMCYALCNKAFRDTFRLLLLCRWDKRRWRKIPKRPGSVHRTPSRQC
UniProt P28223, whole entry: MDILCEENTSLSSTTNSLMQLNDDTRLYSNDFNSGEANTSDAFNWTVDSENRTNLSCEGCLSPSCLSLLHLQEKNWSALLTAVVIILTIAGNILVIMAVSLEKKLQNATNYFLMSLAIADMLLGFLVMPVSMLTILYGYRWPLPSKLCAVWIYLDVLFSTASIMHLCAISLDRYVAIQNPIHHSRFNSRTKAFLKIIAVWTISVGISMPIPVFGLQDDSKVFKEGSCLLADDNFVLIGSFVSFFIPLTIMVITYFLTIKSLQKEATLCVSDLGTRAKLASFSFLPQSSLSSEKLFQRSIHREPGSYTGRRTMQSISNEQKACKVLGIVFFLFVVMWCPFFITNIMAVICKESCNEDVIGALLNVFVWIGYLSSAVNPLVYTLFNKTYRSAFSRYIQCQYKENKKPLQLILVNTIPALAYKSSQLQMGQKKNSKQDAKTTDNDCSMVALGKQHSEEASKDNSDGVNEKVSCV

Assays:
[1] = target: Beta-2 adrenergic receptor (Homo sapiens) (UniProt P07550); experiment: Adrenergic beta2 receptor (ADRB2) small molecule agonists, cell-based qHTS assay (AID 1963593); details: CHO-ADRB2 cells, cAMP HTRF, 30 min; activation: at 92.4 µM (top of the series) unless noted; note: potency is the fitted concentration of half-maximal effect; for activation: % is set by controls: 0 for no effect and ±100 for the full control effect
Source text: (§1) National Center for Advancing Translational Sciences [NCATS]
(§2) Division of Preclinical Innovation [DPI]
(§3) U.S. Environmental Protection Agency [EPA]
(§4) National Institutes of Environmental Health Sciences [NIEHS]
(§5) National Toxicology Program [NTP]
(§6) U.S. Food and Drug Administration [FDA]
Beta adrenergic receptors (Beta-ARs) belong to the G-protein coupled receptor (GPCR) superfamily, includes three subtypes - beta1, beta2, and beta3. Beta1-AR is the predominant receptor subtype expressed in the heart, and beta2-AR is expressed in the kidney, lung, blood vessel and in the heart, and beta3 is found in the adipocytes. Beta1 and 2 ARs couple to Gs protein and elevate cyclic adenosine mono phosphate (cAMP), which activates protein kinase A and leads to the downstream signaling responsible for the physiological actions. Beta-AR agonists or antagonists are the most prescribed therapeutic agents for heart failure and asthma, and these were one of the first target receptors for the rational drug design. Tox21 10K compound library was screened using the cAMP-Gs dynamic assay (Cisbio Bioassays, Shelton, CT) to identify agonists/antagonists of the Gs-coupled human adrenergic, beta2 receptor (ADRB2) in the CHO-ADRB2 cell line (Codex BioSolutions, Inc. Gaithersburg, MD), which stably over-expresses ADRB2. The principle of cAMP-Gs dynamic assay is based on HTRF technology, which facilitates the fluorescence resonance energy transfer (FRET) between donor Europium cryptate and acceptor d2-labeled cAMP. The cAMP generated within cells competes with the red acceptor, d2-labled cAMP, for binding to the monoclonal anti-cAMP-cryptate (Europium donor). An increase in intracellular cAMP leads to the disruption of FRET signal, and the signal is inversely proportional to the cAMP concentration. Isoproterenol HCl (Sigma-Aldrich, St. Louis, MO) was used as a positive control in the screening.
(§7) Tox21 Assay Protocol Summary:
CHO-ADRB2 cells were dispensed at 1,000/well in 4uL assay medium into white/solid 1536-well plates (Greiner Bio-One North America Inc., Monroe, NC) using a Multidrop Combi dispenser (ThermoFisher Scientific, Waltham, MA). The assay plates were incubated at 37C and 5% CO2 for an overnight (18-20hr). Then positive control and test compounds dissolved in DMSO were transferred to the assay plates at 23nL using a Pintool station (Wako, San Diego, CA). Following the compound and positive control transfer, 1uL stimulation mix containing 100uM IBMX and 25uM Ro-20-1724 was added to each well of the assay plates using BioRAPTR Flying Reagent Dispenser (FRD, Beckman Coulter, Brea, CA). The assay plates were incubated at room temperature for 0.5hr. Then 2.5ul each d2-labled cAMP and anti-cAMP-cryptate solutions were added separately to each well of the assay plates using an FRD and the assay plates were incubated at room temperature for 1hr.

[2] = Nuclear factor erythroid 2-related factor 2/antioxidant responsive element (Nrf2/ARE) small molecule agonists: luciferase reporter gene qHTS assay in human keratinocytes (AID 1919969); details: KeratinoSens HaCaT ARE-luciferase, luminescence, 24 h; note: potency is the fitted concentration of half-maximal effect; nearly all actives have a fitted effect of over 35% in size
Source text: as §1, §2, §3, §4, §5, §6
Oxidative stress has been implicated in the pathogenesis of a variety of diseases ranging from cancer to neurodegeneration. The antioxidant response element (ARE) signaling pathway plays an important role in the amelioration of oxidative stress. The KeratinoSens (Givaudan, Switzerland) is an in vitro test method which quantifies luciferase induction as a measure of activation of Keap1-Nrf2-antioxidationt/electrophile response element (ARE) dependant pathway in HaCaT human keratinocytes stably transfected with a selectable plasmid. […] The activation of the report gene under culture conditions can be detected by ONE-Glo Luciferase Assay System (Promega, Madison, WI). […]
HaCaT derived cell line KeratinoSens were dispensed at 1,500 cells/5uL/well in 1536-well white wall/solid bottom plates using a Multidrop Combi (ThermoFisher Scientific, Waltham, MA) dispenser. […] The plates were incubated at 37 C/5% CO2 for 23 h, followed by addition of 1uL/well of CellTiter-Fluor reagent into the assay plates using a Flying Reagent Dispenser (Aurora Discovery, San Diego, CA) for cell viability readout that measures cytotoxicity. […]

[3] = cAMP Responsive Elements (CRE) small molecule agonists, cell-based qHTS assay (AID 1963590); details: CRE-bla HEK293T, beta-lactamase FRET ratio, 3 h; note: potency is the fitted concentration of half-maximal effect
Source text: (§8) U.S. Tox21 Program National Center for Advancing Translational Sciences [NCATS] Division of Preclinical Innovation [DPI] U.S. Environmental Protection Agency [EPA] National Institutes of Environmental Health Sciences [NIEHS] National Toxicology Program [NTP] U.S. Food and Drug Administration [FDA] Tox21 Assay Overview: CREB (cyclic-AMP Responsive Element Binding Protein) is a cellular transcription factor. It binds to certain DNA sequences called cAMP Responsive Elements (CRE) and regulates the transcription of the genes. […] This cell line can be used to find agonists/antagonists of the cyclic AMP signaling pathway. The activation of the report gene under culture conditions can be detected by fluorescence intensity. This cell line has been used to screen the Tox21 10K compound library to identify agonists that induce oxidative stress.
Tox21 Assay Protocol Summary: CRE-bla Hek 293T cells were suspended in assay medium (DMEM containing 10% dialyzed FBS, 0.1 mM NEAA, 1 mM sodium pyruvate and 25 mM HEPES) and dispensed at 2,000 cells/5 uL /well into 1536-well black wall/clear bottom plates using a Multidrop Combi (ThermoFisher Scientific, Waltham, MA) dispenser. After the assay plates were incubated at 37 C/5% CO2 for 18 hrs, 23 nL of compounds dissolved in DMSO, positive controls or DMSO only was transferred to the assay plate by a pintool workstation (Kalypsys, San Diego, CA). […]

[4] = target: Muscarinic acetylcholine receptor M1 (Homo sapiens) (UniProt P11229); experiment: Cholinergic receptor muscarinic 1 (CHRM1) small molecule antagonists, cell-based qHTS assay (AID 1963588); details: CHRM1-CHO antagonist mode, calcium flux fluorescence; note: potency is the fitted concentration of half-maximal effect; nearly all actives have a fitted effect of over 40% in size
Method in brief: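 Compounds were tested at 15 concentrations in three independent runs. Dye-loaded CHRM1-CHO cells were exposed 5 min at room temperature before stimulation by acetylcholine added at 50nM. Intracellular calcium was read kinetically on FDSS for 3 min.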

[5] = p53 small molecule agonists, cell-based qHTS assay with human liver microsomes (AID 1963577); details: HCT-116 p53RE-bla with human liver microsomes, ratio, 16 h; at 66 µM (top of the series);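 note: p53 response element beta-lactamase reporter cells with liver microsomes plus NADPH; % is set by controls: 0 for no effect and ±100 for the full control effect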
Source text: as §1, §2, §3, §4, §5, §6
p53, a tumor suppressor protein, is activated following cellular insult, including DNA damage and other cellular stresses. The activation of p53 regulates cell fate by inducing DNA repair, cell cycle arrest, apoptosis, or cellular senescence. The activation of p53, therefore, is a good indicator of DNA damage and other cellular stresses. […] The activation of the reporter gene under culture conditions can be detected by fluorescence intensity.
as §7
The p53RE-bla cells were dispensed at 4,000cells/3ul/well in 1536-well black-clear bottom plates. After the assay plates were incubated at 37 C, 5% CO2 incubator for 5 hours, 23 nL of compounds dissolved in DMSO, positive controls or DMSO only was transferred to the assay plate. Following compound addition, 3 uL of human liver microsomes (XenoTech, Kansas City, KS) at final concentration of 0.5 mg/mL and 1uL of Beta-Nicotinamide adenine dinucleotide 2-phosphate (NADPH) at final concentration of 0.5 mg/mL were transferred to the assay plate. The plates were incubated at 37 C for 16 hours. […]

[6] = target: 5-hydroxytryptamine receptor 2A (Homo sapiens) (UniProt P28223); experiment: 5-hydroxytryptamine receptor 2A (HTR2A) small molecule antagonists, cell-based qHTS assay (AID 1963586); details: HTR2A-CHO cells, DOI-induced calcium flux, fluorescence; note: potency is the fitted concentration of half-maximal effect; nearly all actives have a fitted effect of over 45% in size
Source text: as §1, §2, §3, §4, §5, §6
The HTR2A receptor is a subtype of the 5-HT2 receptor that belongs to the serotonin receptor family and is a G protein-coupled receptor (GPCR). The HTR2A-CHO cell line stably expressing human 5-hydroxytryptamine receptor 2A (HTR2A) can be used for screening antagonists of interactions between 5-HT2 and its ligands. The HTR2A-CHO calcium flux assay is a homogeneous fluorescence-based assay for detecting the intracellular calcium level using FDSS kinetic plate reader system.
as §7
HTR2A-CHO cells were dispensed at 2000 cells/3uL/well in 1536-well black-clear bottom plates using a Multidrop Dispenser. After the assay plates were incubated at a 37 C/5% CO2 incubator for 18 h, 3 uL of Dye Loading Buffer was transferred to the assay plate by a Flying Reagent Dispenser. The assay plates were incubated at 37 C for 1h. For antagonist mode, 23 nL of compounds dissolved in DMSO, positive controls or DMSO only was transferred to the assay plate by a pin tool. […] The fluorescence intensity in the plates was measured using FDSS 7000EX kinetic plate reader for 3 min at 1 sec intervals.

[7] = p53 small molecule agonists, cell-based qHTS assay (AID 1963582; active = well fitted activation curve with a large enough effect in the signal ratio in the repeat runs, not every such curve was filed as active; inconclusive = weak or mixed curves; the % refers to the signal ratio; note: % is set by controls: 0 for no effect and ±100 for the full control effect); details: HCT-116 p53RE-bla reporter, beta-lactamase FRET ratio, 16 h; at 66 µM (top of the series)
Method in brief: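 Cells carrying a p53-responsive bla reporter are treated with test compounds for 16 h at 37 C; beta-lactamase activity is then detected with LiveBLAzer B/G FRET substrate after 2 h at room temperature.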

[8] = cAMP Responsive Elements (CRE) small molecule antagonists, cell-based qHTS assay (AID 1963591; active = well fitted inhibition curve with a large enough effect in the signal ratio in the repeat runs, not every such curve was filed as active; inconclusive = weak or mixed curves, or effect the other way; the % refers to the signal ratio; note: potency is the fitted concentration of half-maximal effect); details: CRE-bla HEK293T, beta-lactamase FRET ratio
Source text: as §8, with “[…].” for “identify agonists that induce oxidative stress.”
Tox21 Assay Protocol Summary: CRE-bla Hek 293T cells were suspended in assay medium (DMEM containing 10% dialyzed FBS, 0.1 mM NEAA, 1 mM sodium pyruvate and 25 mM HEPES) and dispensed at 2,000 cells/4 uL /well into 1536-well black wall/clear bottom plates using a Multidrop Combi (ThermoFisher Scientific, Waltham, MA) dispenser. […]

SMILES: ClCCNCCCl
- activation [1]: inconclusive: 9.52%

SMILES: CCOP(=O)(Cl)Cl
- Potency [2]: inconclusive: 68.6 µM
- Potency [3]: inconclusive: 26.8 µM
- activation [1]: inconclusive: 0.252% and inconclusive: -1.13%

SMILES: CCC(=O)N(c1ccccc1)C1CCNCC1
- Potency [4]: inconclusive: 0.46 µM
- activation [1]: inconclusive: -1.53% [at 42.5 µM]

SMILES: CCOP(=S)(Cl)OCC
- activation [1]: inconclusive: 0.292%

SMILES: CC(C)OP(OC(C)C)OC(C)C
- Potency [2]: inconclusive: 68.6 µM
- activation [5]: inconclusive: 21.8%
- Potency [6]: inconclusive: 0.0027 µM

SMILES: ClCCOP(OCCCl)OCCCl
- activation [1]: inconclusive: 4.97%

SMILES: O=[N+]([O-])c1ccccc1[N+](=O)[O-]
- activation [7]: inconclusive: -3.07%
- Potency [8]: inconclusive: 31.4 µM and inconclusive: 48.6 µM
- Potency [1]: inconclusive: 0.627 µM
- activation [1]: inconclusive: 27.4%
